Measured values as given in article PMC11612967.
These are yes or no findings as the source states them, for the method shown. Binding calls can cover weak binding; strength is not graded here. For some assays here: In cells and extracts the contact can be indirect.

B1: H. sapiens Nse2 (protein, UniProt Q96MF7 1-247)
chain: MPGRSSSNSGSTGFISFSGVESALSSLKNFQACINSGMDTASSVALDLVESQTEVSSEYSMDKAMVEFATLDRQLNHYVKAVQSTINHVKEERPEKIPDLKLLVEKKFLALQSKNSDADFQNNEKFVQFKQQLKELKKQCGLQADREADGTEGVDEDIIVTQSQTNFTCPITKEEMKKPVKNKVCGHTYEEDAIVRMIESRQKRKKKAYCPQIGCSHTDIRKSDLIQDEALRRAIENHNKKRHRHSE
B2: H. sapiens Nse3 (protein, UniProt Q96MG7 1-304)
chain: MLQKPRNRGRSGGQAERDRDWSHSGNPGASRAGEDARVLRDGFAEEAPSTSRGPGGSQGSQGPSPQGARRAQAAPAVGPRSQKQLELKVSELVQFLLIKDQKKIPIKRADILKHVIGDYKDIFPDLFKRAAERLQYVFGYKLVELEPKSNTYILINTLEPVEEDAEMRGDQGTPTTGLLMIVLGLIFMKGNTIKETEAWDFLRRLGVYPTKKHLIFGDPKKLITEDFVRQRYLEYRRIPHTDPVDYEFQWGPRTNLETSKMKVLKFVAKVHNQDPKDWPAQYCEALADEENRARPQPSGPAPSS
B3: H. sapiens Smc6 (protein, UniProt Q96SB8 1-1091)
chain: MAKRKEENFSSPKNAKRPRQEELEDFDKDGDEDECKGTTLTAAEVGIIESIHLKNFMCHSMLGPFKFGSNVNFVVGNNGSGKSAVLTALIVGLGGRAVATNRGSSLKGFVKDGQNSADISITLRNRGDDAFKASVYGNSILIQQHISIDGSRSYKLKSATGSVVSTRKEELIAILDHFNIQVDNPVSVLTQEMSKQFLQSKNEGDKYKFFMKATQLEQMKEDYSYIMETKERTKEQIHQGEERLTELKRQCVEKEERFQSIAGLSTMKTNLESLKHEMAWAVVNEIEKQLNAIRDNIKIGEDRAARLDRKMEEQQVRLNEAEQKYKDIQDKLEKISEETNARAPECMALKADVVAKKRAYNEAEVLYNRSLNEYKALKKDDEQLCKRIEELKKSTDQSLEPERLERQKKISWLKERVKAFQNQENSVNQEIEQFQQAIEKDKEEHGKIKREELDVKHALSYNQRQLKELKDSKTDRLKRFGPNVPALLEAIDDAYRQGHFTYKPVGPLGACIHLRDPELALAIESCLKGLLQAYCCHNHADERVLQALMKRFYLPGTSRPPIIVSEFRNEIYDVRHRAAYHPDFPTVLTALEIDNAVVANSLIDMRGIETVLLIKNNSVARAVMQSQKPPKNCREAFTADGDQVFAGRYYSSENTRPKFLSRDVDSEISDLENEVENKTAQILNLQQHLSALEKDIKHNEELLKRCQLHYKELKMKIRKNISEIRELENIEEHQSVDIATLEDEAQENKSKMKMVEEHMEQQKENMEHLKSLKIEAENKYDAIKFKINQLSELADPLKDELNLADSEVDNQKRGKRHYEEKQKEHLDTLNKKKRELDMKEKELEEKMSQARQICPERIEVEKSASILDKEINRLRQKIQAEHASHGDREEIMRQYQEARETYLDLDSKVRTLKKFIKLLGEIMEHRFKTYQQFRRCLTLRCKLYFDNLLSQRAYCGKMNFDHKNETLSISVQPGEGNKAAFNDMRALSGGERSFSTVCFILSLWSIAESPFRCLDEFDVYMDMVNRRIAMDLILKMADSQRFRQFILLTPQSMSSLPSSKLIRILRMSDPERGQTTLPFRPVTQEEDDDQR
B4: H. sapiens Nse1 (protein, UniProt Q8WV22 1-266)
chain: MQGSTRRMGVMTDVHRRFLQLLMTHGVLEEWDVKRLQTHCYKVHDRNATVDKLEDFINNINSVLESLYIEIKRGVTEDDGRPIYALVNLATTSISKMATDFAENELDLFRKALELIIDSETGFASSTNILNLVDQLKGKKMRKKEAEQVLQKFVQNKWLIEKEGEFTLHGRAILEMEQYIRETYPDAVKICNICHSLLIQGQSCETCGIRMHLPCVAKYFQSNAEPRCPHCNDYWPHEIPKVFDPEKERESGVLKSNKKSLRSRQH

Columns and labels:
[1] = target: T1, H. sapiens Nse3 (H. sapiens) (UniProt Q96MG7); test: pull-down; H. sapiens Smc5/6 subunits co-expressed in transfected HEK293 cells (10-ml scale), one subunit tagged (N- or C-terminal); lysis buffer with Benzonase and protease inhibitors, processed as for the small-scale expression in E. coli; Coomassie-stained SDS-PAGE
T1 sequence: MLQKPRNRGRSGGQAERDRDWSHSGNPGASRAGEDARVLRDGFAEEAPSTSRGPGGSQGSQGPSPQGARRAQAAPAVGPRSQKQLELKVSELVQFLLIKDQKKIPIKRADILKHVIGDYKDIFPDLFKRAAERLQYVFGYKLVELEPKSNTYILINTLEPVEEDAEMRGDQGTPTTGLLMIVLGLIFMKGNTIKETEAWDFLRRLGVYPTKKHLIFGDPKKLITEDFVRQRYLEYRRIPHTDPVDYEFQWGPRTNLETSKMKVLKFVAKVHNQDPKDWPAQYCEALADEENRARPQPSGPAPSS

[2] = target: T2, H. sapiens Nse2 (H. sapiens) (UniProt Q96MF7); test: as above
T2 sequence: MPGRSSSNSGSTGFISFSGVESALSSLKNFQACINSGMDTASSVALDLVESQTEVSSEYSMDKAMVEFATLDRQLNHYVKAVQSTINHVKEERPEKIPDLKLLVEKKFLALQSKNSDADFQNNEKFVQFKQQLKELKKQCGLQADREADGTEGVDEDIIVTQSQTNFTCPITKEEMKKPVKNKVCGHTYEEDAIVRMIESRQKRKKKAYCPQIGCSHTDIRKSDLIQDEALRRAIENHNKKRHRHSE

[3] = target: T3, H. sapiens Nse1 (H. sapiens) (UniProt Q8WV22); test: as above
T3 sequence: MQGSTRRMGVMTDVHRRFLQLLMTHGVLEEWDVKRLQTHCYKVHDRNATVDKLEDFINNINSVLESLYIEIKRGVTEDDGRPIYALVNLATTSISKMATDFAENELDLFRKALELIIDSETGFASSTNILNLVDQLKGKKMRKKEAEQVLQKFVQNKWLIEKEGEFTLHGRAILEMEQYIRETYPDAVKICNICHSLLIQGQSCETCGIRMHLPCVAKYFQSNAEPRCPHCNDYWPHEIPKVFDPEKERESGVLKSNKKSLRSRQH

[4] = target: T4, H. sapiens Smc6 (H. sapiens) (UniProt Q96SB8); test: as above
T4 sequence: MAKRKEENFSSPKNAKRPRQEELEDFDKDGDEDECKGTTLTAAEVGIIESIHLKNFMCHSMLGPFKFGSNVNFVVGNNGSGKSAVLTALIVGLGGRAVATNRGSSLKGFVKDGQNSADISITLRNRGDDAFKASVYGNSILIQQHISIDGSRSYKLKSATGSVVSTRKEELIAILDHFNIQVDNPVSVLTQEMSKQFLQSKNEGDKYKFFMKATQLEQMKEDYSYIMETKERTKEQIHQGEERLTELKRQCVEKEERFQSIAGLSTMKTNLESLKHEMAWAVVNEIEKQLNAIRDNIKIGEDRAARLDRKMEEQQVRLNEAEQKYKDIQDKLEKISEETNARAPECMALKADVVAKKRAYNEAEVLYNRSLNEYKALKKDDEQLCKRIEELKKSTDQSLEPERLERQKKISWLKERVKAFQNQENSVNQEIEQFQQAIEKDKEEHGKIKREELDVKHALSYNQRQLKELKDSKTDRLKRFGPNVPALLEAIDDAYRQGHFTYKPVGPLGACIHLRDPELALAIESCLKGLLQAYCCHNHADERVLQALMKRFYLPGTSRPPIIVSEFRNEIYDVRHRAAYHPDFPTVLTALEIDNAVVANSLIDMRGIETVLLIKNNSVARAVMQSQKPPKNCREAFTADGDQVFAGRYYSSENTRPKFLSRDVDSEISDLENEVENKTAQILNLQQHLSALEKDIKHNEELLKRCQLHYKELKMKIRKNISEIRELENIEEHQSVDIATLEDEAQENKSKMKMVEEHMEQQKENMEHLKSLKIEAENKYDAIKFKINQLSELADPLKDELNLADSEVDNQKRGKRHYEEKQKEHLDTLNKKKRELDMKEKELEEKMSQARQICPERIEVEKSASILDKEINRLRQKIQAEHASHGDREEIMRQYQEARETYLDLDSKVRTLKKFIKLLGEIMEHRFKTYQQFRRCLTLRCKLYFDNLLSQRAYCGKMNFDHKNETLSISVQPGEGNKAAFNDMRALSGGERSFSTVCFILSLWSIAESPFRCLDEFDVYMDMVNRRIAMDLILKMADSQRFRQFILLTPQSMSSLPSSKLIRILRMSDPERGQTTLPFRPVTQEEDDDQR

[5] = target: H. sapiens Nse4 (H. sapiens); test: SEC; large scale, 1 liter HEK293 culture; Nse4 with C-terminal Twin-Strep tag; StrepTrap in 50 mM Tris-HCl pH 7.5, 300 mM NaCl, 5% glycerol, then Superose 6 Increase 3.2/300; peak by SDS-PAGE and LC-MS/MS
[6] = target: H. sapiens Nse4 (H. sapiens); test: pull-down; H. sapiens Smc5/6 subunits co-expressed in transfected HEK293 cells (10-ml scale), one subunit tagged (N- or C-terminal); lysis buffer with Benzonase and protease inhibitors, processed as for the small-scale expression in E. coli; Coomassie-stained SDS-PAGE

Row | Molecule | binding [1] | binding [2] | binding [3] | binding [4] | binding [5] | binding [6]
1 | H. sapiens Nse4 | binds | binds | binds | binds | – | –
2 | B1 | – | – | – | – | binds | binds
3 | B2 | – | – | – | – | binds | binds
4 | B3 | – | – | – | – | binds | –
5 | B4 | – | – | – | – | binds | binds
